The other results are listed elsewhere or left out. Shown are side measurements of this screen, not its main read-out; they come without a call. Compounds called inactive in the main read-out are mostly missing here. Potencies come from curve fits of mixed quality, noted in brackets.
test: qHTS Assay for Identifying the Cell-Membrane Permeable IMPase Inhibitors; conditions: CHO-M1 cells, IP1 accumulation, HTRF TR-FRET ratio; measured here: donor channel 620 nm AC50

| Structure (SMILES) | AC50 |
| --- | --- |
| CC(C)CC(c1nnnn1Cc1ccco1)N1CCN(c2cccc(Cl)c2)CC1 (stereo unspecified) | 0.501 µM [rising, full curve, poor fit] |
| CC(O)/C=C/c1cccc[n+]1C (stereo unspecified) | 5.01 µM [falling, single point] |
| Fc1ccc(NC(=S)NN=C2CCCCCC2)cc1 | 0.02 µM [rising, full curve, poor fit] |
| O=C(CCC(=O)c1ccc(F)cc1)OC1CCOC1=O (stereo unspecified) | 31.6 µM [falling, single point] |
| COc1cccc(NC(=O)Nc2ccc3c(c2)nnn3C)c1 | 0.794 µM [falling, full curve] |
| O=C(Nn1c(O)c(C=C2N=c3ccccc3=N2)sc1=S)c1cccc(Cl)c1 | 31.6 µM [falling, single point] |
| CN(C)c1oc(-c2ccccc2Cl)nc1C#N | 3.55 µM [falling, full curve, poor fit] |
| Cc1ccnc(NS(=O)(=O)c2ccc(NC(=O)C(C)(C)Oc3ccc(Cl)cc3)cc2)n1 | 0.0891 µM [falling, full curve, poor fit] |
| O=S(=O)(c1ccc(Br)cc1)N1CCN(c2cc(-c3ccccc3)nc3ncnn23)CC1 | 3.98 µM [falling, partial curve, poor fit] |
| COc1ccccc1NC(=O)CCN1CC(C)OC(C)C1 (stereo unspecified) | 5.01 µM [falling, single point] |
| COc1ccc2sc3ccccc3c(=O)c2c1OC | 31.6 µM [rising, single point] |
| Cc1oc2c(cc(NS(=O)(=O)c3ccc(Cl)cc3)c3ccccc32)c1C(=O)OCc1ccccc1 | 10 µM [rising, partial curve] |
| Cc1[nH]n2c(=O)c3c(nc2c1-c1ccc(Cl)cc1)CCC3 | 3.98 µM [rising, single point] |
| CCOc1ccc(-c2nc3ccccc3c(=O)o2)cc1 | 25.1 µM [rising, partial curve] |
| CCCc1cc(C(=O)Nc2ccc(C(C)=O)cc2)no1 | 31.6 µM [rising, single point] |
| COc1ccc(/C=N/NC(=O)CSc2n[nH]c(=O)[nH]c2=O)cc1 | 0.00355 µM [falling, full curve, poor fit] |
| CC(C(=O)N1CCCc2ccccc21)N1C(=O)c2ccccc2C1=O (stereo unspecified) | 1 µM [rising, full curve, poor fit] |
| Cc1cc(C)c2nc(C(F)(F)F)nc(N3CC(C)OC(C)C3)c2c1 (stereo unspecified) | 3.16 µM [falling, full curve, poor fit] |
| CCOC(=O)COc1ccc2nsnc2c1Cl | 12.6 µM [rising, partial curve] |
| C=CCc1cccc(/C=N/c2ncccc2O)c1O | 12.6 µM [falling, single point] |
| Cc1ccc(NC2=CC(=O)C(=O)c3ccccc32)cc1 | 15.8 µM [falling, single point] |
| CCCCCC(=O)Nc1c(-c2ccc(OC)cc2)c(=O)c2ccccc2n1C | 0.794 µM [falling, full curve, poor fit] |

| Structure (SMILES) | AC50 |
| --- | --- |
| COCCCn1c(C(C)C)nc2oc3cc(OC)ccc3c(=O)c2c1=O | 0.251 µM [falling, partial curve, poor fit] |
| CC(C)Sc1oc(-c2ccco2)nc1S(=O)(=O)c1ccccc1 | 10 µM [falling, partial curve, poor fit] |
| CCOc1ccccc1CNC(=O)CCN1C(=O)COc2ccccc21 | 0.00398 µM [falling, partial curve, poor fit] |
| COc1cc2c(C(=O)NCc3ccc4c(c3)OCO4)cn(C)c(=O)c2cc1OC | 25.1 µM [rising, single point] |
| COc1ccc(N(C(=O)c2ccco2)C(C(=O)NC2CCCCC2)c2cccs2)cc1OC (stereo unspecified) | 0.2 µM [rising, single point] |
| COc1ccccc1N1CCN(C(=O)c2cnn3cccnc23)CC1 | 5.62 µM [rising, single point] |
| CCN1CCN(c2nc(C)nc3c2sc(=S)n3C)CC1 | 1.12 µM [falling, full curve, poor fit] |
| COc1cccc(OC)c1C(=O)Nc1ccc(-c2nc3ncccc3o2)cc1 | 0.00501 µM [falling, full curve, poor fit] |
| COc1ccc(S(=O)(=O)CCc2nnc(NC(=O)c3cccs3)s2)cc1 | 2.51 µM [falling, full curve, poor fit] |
| OC(CSc1ccccc1Cl)CN1CCN(c2ccccc2F)CC1 (stereo unspecified) | 14.1 µM [falling, single point] |
| CCC(=O)Nc1ccc(N2CCN(Cc3ccccc3)CC2)cc1 | 1.58 µM [falling, partial curve] |
| CCC(Sc1nc2ccccc2c(=O)[nH]1)C(=O)O (stereo unspecified) | 0.316 µM [falling, full curve, poor fit] |
| COc1ccccc1CN(Cc1ccco1)S(=O)(=O)c1ccc(-n2cnnn2)c(OC)c1 | 2.82 µM [falling, full curve] |
| COC(=O)c1cc(NC(=O)CSc2nnc(CN3CCOCC3)n2C)ccc1Cl | 0.01 µM [falling, full curve, poor fit] |
| CCOC(=O)c1cc(OC(=O)c2ccccc2F)n(-c2ccccc2)n1 | 0.00447 µM [falling, full curve, poor fit] |
| COc1ccc(OCC(=O)Nc2ccc(-c3nc4cc(Cl)ccc4o3)cc2)cc1 | 28.2 µM [rising, single point] |
| COc1cc(/C=N/N=C(/N)c2nonc2N)cc(Br)c1OCc1cccc(C)c1 | 0.1 µM [falling, full curve, poor fit] |
| Cc1cccc2c(-c3ccccc3)cc(=O)[nH]c12 | 0.126 µM [falling, full curve, poor fit] |
| Cc1c(C(=O)C(=O)N2c3ccc(F)cc3CCC2C)c2ccccc2n1C (stereo unspecified) | 14.1 µM [rising, single point] |
| C/C(=C\C(=O)c1ccccc1)Nc1cccc(O)c1 | 0.0126 µM [rising, full curve, poor fit] |
| O=C(c1cc(-c2ccccn2)nc2ccc(Br)cc12)N1CCc2ccccc2C1 | 15.8 µM [rising, partial curve] |
| CN1CCN(C(=O)c2ccc3c(=O)n(Cc4ccc(Cl)cc4)c(=S)[nH]c3c2)CC1 | 0.2 µM [falling, full curve, poor fit] |

Part of the list above, comma-delimited:
Structure (SMILES),AC50
CC(C)CC(c1nnnn1Cc1ccco1)N1CCN(c2cccc(Cl)c2)CC1 (stereo unspecified),"0.501 µM [rising, full curve, poor fit]"
CC(O)/C=C/c1cccc[n+]1C (stereo unspecified),"5.01 µM [falling, single point]"
COc1cccc(NC(=O)Nc2ccc3c(c2)nnn3C)c1,"0.794 µM [falling, full curve]"
O=C(Nn1c(O)c(C=C2N=c3ccccc3=N2)sc1=S)c1cccc(Cl)c1,"31.6 µM [falling, single point]"
COc1ccc2sc3ccccc3c(=O)c2c1OC,"31.6 µM [rising, single point]"
CC(C(=O)N1CCCc2ccccc21)N1C(=O)c2ccccc2C1=O (stereo unspecified),"1 µM [rising, full curve, poor fit]"
CCOC(=O)COc1ccc2nsnc2c1Cl,"12.6 µM [rising, partial curve]"
CCCCCC(=O)Nc1c(-c2ccc(OC)cc2)c(=O)c2ccccc2n1C,"0.794 µM [falling, full curve, poor fit]"
CC(C)Sc1oc(-c2ccco2)nc1S(=O)(=O)c1ccccc1,"10 µM [falling, partial curve, poor fit]"
COc1ccccc1N1CCN(C(=O)c2cnn3cccnc23)CC1,"5.62 µM [rising, single point]"
COc1ccc(S(=O)(=O)CCc2nnc(NC(=O)c3cccs3)s2)cc1,"2.51 µM [falling, full curve, poor fit]"
OC(CSc1ccccc1Cl)CN1CCN(c2ccccc2F)CC1 (stereo unspecified),"14.1 µM [falling, single point]"
CCC(Sc1nc2ccccc2c(=O)[nH]1)C(=O)O (stereo unspecified),"0.316 µM [falling, full curve, poor fit]"
COC(=O)c1cc(NC(=O)CSc2nnc(CN3CCOCC3)n2C)ccc1Cl,"0.01 µM [falling, full curve, poor fit]"
CCOC(=O)c1cc(OC(=O)c2ccccc2F)n(-c2ccccc2)n1,"0.00447 µM [falling, full curve, poor fit]"
Cc1cccc2c(-c3ccccc3)cc(=O)[nH]c12,"0.126 µM [falling, full curve, poor fit]"
Cc1c(C(=O)C(=O)N2c3ccc(F)cc3CCC2C)c2ccccc2n1C (stereo unspecified),"14.1 µM [rising, single point]"
O=C(c1cc(-c2ccccn2)nc2ccc(Br)cc12)N1CCc2ccccc2C1,"15.8 µM [rising, partial curve]"

Later entries

| Structure (SMILES) | AC50 |
| --- | --- |
| CCCn1c(NCc2cccc(OC)c2O)nc2ccccc21 | 0.2 µM [falling, full curve] |
| CC(C)NC(=O)c1cccc(Cn2cc(Cl)cn2)c1 | 0.0316 µM [falling, full curve] |
| Cn1nc(C(F)(F)F)c(/C=N/OC(=O)c2ccccc2)c1SCc1ccc(Cl)cc1 | 0.316 µM [falling, full curve, poor fit] |
| O=[N+]([O-])c1ccc(/C=N\N2CCN(c3ccc(Cl)cc3)CC2)cc1 | 31.6 µM [falling, single point] |
| CS/C(=C\[N+](=O)[O-])Nc1ccccc1 | 6.31 µM [falling, single point] |
| O=C(C1=C(O)C(=O)N(Cc2ccco2)C1c1cccnc1)c1cc2ccccc2o1 (stereo unspecified) | 12.6 µM [rising, partial curve] |
| COc1ccc(-n2c(COc3ccc(C)cc3)nnc2SCC(N)=O)cc1 | 3.16 µM [falling, partial curve] |
| CCOc1cccc(C(=O)NC2CCCCC2)c1 | 5.62 µM [falling, partial curve, poor fit] |
| O=C(Nc1cccc2ccccc12)c1nn(C23CC4CC(CC(C4)C2)C3)cc1[N+](=O)[O-] | 0.0126 µM [rising, full curve, poor fit] |
| NC(=O)C[C@@H]1N[C@]2(C(=O)Nc3ccccc32)[C@@H]2C(=O)N(c3cc(C(F)(F)F)ccc3Cl)C(=O)[C@H]12 | 0.316 µM [falling, full curve] |
| Cc1ccc(NC(=O)CN(c2ccccc2)S(=O)(=O)N(C)C)cc1C | 0.794 µM [falling, full curve] |
| CC1=C(C(=O)OC(C)C)C(c2ccc(C)o2)NC(=O)N1 (stereo unspecified) | 0.2 µM [falling, full curve] |
| CCCCc1cc(=O)oc2cc(OCc3cc(OC)c(OC)c(OC)c3)c(Cl)cc12 | 5.01 µM [rising, single point] |
| COc1cc(NC(=O)C2CCCN2C(=O)C2CCC(C)CC2)cc(OC)c1OC (stereo unspecified) | 5.62 µM [rising, single point] |
| CCC(Sc1nc(-c2ccccc2)c(C#N)c(=O)[nH]1)C(=O)Nc1nnc(C)s1 (stereo unspecified) | 12.6 µM [rising, partial curve] |
| Cc1c(NC(=O)COC(=O)C2CC3C=CC2C3)c(=O)n(-c2ccccc2)n1C (stereo unspecified) | 3.98 µM [falling, partial curve] |
| COc1cccc(/C=C/C(=O)OCC(=O)NCC2CCCO2)c1OC (stereo unspecified) | 1.12 µM [falling, full curve, poor fit] |
| CCCCNC(=O)OCC(CC)NC(=O)OC(C)C (stereo unspecified) | 0.00398 µM [falling, full curve, poor fit] |
| CCN(Cc1cc2cc(OC)ccc2[nH]c1=O)C(=O)Cc1ccc(OC)cc1 | 15.8 µM [rising, single point] |
| O=C(NCC1CCCO1)c1onc(CSc2ccc(F)c(F)c2)c1C(=O)O (stereo unspecified) | 0.631 µM [rising, full curve, poor fit] |
| COC(=O)CSc1nc(C)c(C(=O)Nc2ccccc2C)c(-c2ccc(Cl)cc2)c1C#N | 35.5 µM [rising, single point] |
| CCOc1ccccc1NC(=O)COC(=O)Cc1ccc(-c2ccccc2)cc1 | 35.5 µM [rising, single point] |

2 compounds picked at random from those above:

| Structure (SMILES) | AC50 |
| --- | --- |
| COC(=O)CSc1nc(C)c(C(=O)Nc2ccccc2C)c(-c2ccc(Cl)cc2)c1C#N | 35.5 µM [rising, single point] |
| Cn1nc(C(F)(F)F)c(/C=N/OC(=O)c2ccccc2)c1SCc1ccc(Cl)cc1 | 0.316 µM [falling, full curve, poor fit] |
